Data source: PubChem BioAssay AID1259308 (NCATS, 2017)
Shown is one part, drawn at random, of about 59,000 reagents. Over the whole deposit, about 1,510 (2.6%) got an active call. 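Calls use total luciferase alone and ignore viability, so some active siRNAs may act by altering cell number.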 Reagents against one gene are numbered here. Not all columns of the deposit are shown.

Screen: 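Knock-downs that increase output of a recombinant reporter protein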 (primary screen)
Cell system: human HEK293 embryonic kidney cells stably expressing firefly luciferase (HEK-CMV-Luc2-Hygro)
Reagents: single siRNA against human genes, 0.8 pmol siRNA per well
Timing: 72 h
Measurement: 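Reporter luminescence and viable-cell signal on separate replicate plates, given as percent of non-targeting control and median/MAD z-scores, plus per-cell luciferase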
Scale: total luciferase, z-score and total luciferase, % of control: higher = more reporter protein produced
Hit rule: 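Active when the median/MAD z-score for overall luciferase is greater than 3; a gene was taken forward for validation with new siRNAs if at least two of its three siRNAs passed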
Calls: active = raised luciferase; inactive = no rise

Silencing of ITGAV (integrin subunit alpha V) #1 gave: total luciferase, z-score -0.248; total luciferase, % of control 76.9; inactive. ITGAV (integrin subunit alpha V) #2 showed total luciferase, z-score 2.16; total luciferase, % of control 125; inactive. With knock-down of ITGAV (integrin subunit alpha V) #3, the record shows total luciferase, z-score -0.0646; total luciferase, % of control 80.6; inactive. After knock-down of ZNF449 (zinc finger protein 449) #1, the screen gave total luciferase, z-score 0.093; total luciferase, % of control 83.7; inactive. Depletion of ZNF449 (zinc finger protein 449) #2 came out at: total luciferase, z-score -0.551; total luciferase, % of control 70.9; inactive. Knock-down of ZNF449 (zinc finger protein 449) #3 gave: total luciferase, z-score -0.168; total luciferase, % of control 78.5; inactive.

Knock-down of ZCCHC13 (zinc finger CCHC-type containing 13) #1 resulted in: total luciferase, z-score -1.71; total luciferase, % of control 47.8; inactive. ZCCHC13 (zinc finger CCHC-type containing 13) #2 gave total luciferase, z-score 0.12; total luciferase, % of control 84.3; inactive. Depletion of ZCCHC13 (zinc finger CCHC-type containing 13) #3 gave: total luciferase, z-score 0.188; total luciferase, % of control 85.6; inactive. Against HMG20B (high mobility group 20B) #1, the values are total luciferase, z-score -0.461; total luciferase, % of control 72.7; inactive. With knock-down of HMG20B (high mobility group 20B) #2, the screen gave total luciferase, z-score -0.00978; total luciferase, % of control 81.7; inactive. After knock-down of HMG20B (high mobility group 20B) #3, the record shows total luciferase, z-score 0.541; total luciferase, % of control 92.6; inactive.
